We go through three substances from article PMC7274033.

Amino acid sequences for entries named in this document (tags omitted).
UniProt Q9QZL0: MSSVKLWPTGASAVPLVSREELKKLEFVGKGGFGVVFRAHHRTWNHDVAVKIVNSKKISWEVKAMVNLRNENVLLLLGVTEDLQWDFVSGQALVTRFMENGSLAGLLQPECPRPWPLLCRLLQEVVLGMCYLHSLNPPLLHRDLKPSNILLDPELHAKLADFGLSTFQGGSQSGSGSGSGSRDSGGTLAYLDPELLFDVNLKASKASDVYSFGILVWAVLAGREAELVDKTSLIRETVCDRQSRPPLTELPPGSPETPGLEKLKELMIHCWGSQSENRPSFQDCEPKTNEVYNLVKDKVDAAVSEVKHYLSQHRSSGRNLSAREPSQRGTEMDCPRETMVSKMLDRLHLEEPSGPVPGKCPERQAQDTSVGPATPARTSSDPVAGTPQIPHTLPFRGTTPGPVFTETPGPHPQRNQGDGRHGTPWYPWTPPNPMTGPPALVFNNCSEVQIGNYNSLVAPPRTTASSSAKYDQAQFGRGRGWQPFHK
UniProt Q8R4B8: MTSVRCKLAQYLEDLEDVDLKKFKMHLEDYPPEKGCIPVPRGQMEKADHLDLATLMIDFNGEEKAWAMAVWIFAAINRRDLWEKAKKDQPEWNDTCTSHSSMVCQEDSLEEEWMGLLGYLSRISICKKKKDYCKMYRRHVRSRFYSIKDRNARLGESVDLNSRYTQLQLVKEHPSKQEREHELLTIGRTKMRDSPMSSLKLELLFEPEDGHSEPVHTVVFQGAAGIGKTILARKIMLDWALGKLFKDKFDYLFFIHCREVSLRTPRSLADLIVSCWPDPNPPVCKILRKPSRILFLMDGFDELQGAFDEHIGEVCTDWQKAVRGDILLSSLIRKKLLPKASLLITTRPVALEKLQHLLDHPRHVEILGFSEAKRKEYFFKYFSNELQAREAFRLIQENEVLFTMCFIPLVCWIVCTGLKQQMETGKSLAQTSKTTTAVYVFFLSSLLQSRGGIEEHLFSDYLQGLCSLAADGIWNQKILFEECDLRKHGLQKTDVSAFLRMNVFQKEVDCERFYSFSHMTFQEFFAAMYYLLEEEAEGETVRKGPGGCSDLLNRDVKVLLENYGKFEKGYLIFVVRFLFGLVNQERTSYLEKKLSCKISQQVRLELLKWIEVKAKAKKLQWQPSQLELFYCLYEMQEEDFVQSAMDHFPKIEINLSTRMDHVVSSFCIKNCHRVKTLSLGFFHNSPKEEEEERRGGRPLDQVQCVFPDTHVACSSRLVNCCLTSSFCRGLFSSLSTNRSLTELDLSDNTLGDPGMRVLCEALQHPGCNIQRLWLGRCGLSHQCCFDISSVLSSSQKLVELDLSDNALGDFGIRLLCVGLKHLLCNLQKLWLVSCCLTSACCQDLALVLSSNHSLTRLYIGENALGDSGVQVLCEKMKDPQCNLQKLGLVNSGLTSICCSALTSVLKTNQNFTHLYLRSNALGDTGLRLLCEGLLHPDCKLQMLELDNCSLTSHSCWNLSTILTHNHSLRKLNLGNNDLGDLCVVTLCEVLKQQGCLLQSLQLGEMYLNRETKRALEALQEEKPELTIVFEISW

No constants are given. Whether binding was seen depends on the method and setting. In cells and extracts the contact can be indirect. Some results given as binding are weak or reduced against the parent protein; the word gives no strength.

Test [1] concerns the target RIPK3-GFP (receptor-interacting serine/threonine-protein kinase 3) (UniProt Q9QZL0). Kind of test: co-IP; HEK293T co-transfected (600 ng each, 30 h) with ASC-turboGFP, CASP8, FLAG-NLRP3, RIPK1 and mCherry-ZBP1 with or without RIPK3-GFP; zVAD-fmk; RIPK3 immunoprecipitated; NP-40 lysis buffer; protein A/G-plus agarose; immunoblot.
In test [2] the target is T1, RIPK1 (RIP kinase 1), endogenous in BMDMs (mouse (endogenous in BMDMs)) (UniProt Q60855).
T1 sequence: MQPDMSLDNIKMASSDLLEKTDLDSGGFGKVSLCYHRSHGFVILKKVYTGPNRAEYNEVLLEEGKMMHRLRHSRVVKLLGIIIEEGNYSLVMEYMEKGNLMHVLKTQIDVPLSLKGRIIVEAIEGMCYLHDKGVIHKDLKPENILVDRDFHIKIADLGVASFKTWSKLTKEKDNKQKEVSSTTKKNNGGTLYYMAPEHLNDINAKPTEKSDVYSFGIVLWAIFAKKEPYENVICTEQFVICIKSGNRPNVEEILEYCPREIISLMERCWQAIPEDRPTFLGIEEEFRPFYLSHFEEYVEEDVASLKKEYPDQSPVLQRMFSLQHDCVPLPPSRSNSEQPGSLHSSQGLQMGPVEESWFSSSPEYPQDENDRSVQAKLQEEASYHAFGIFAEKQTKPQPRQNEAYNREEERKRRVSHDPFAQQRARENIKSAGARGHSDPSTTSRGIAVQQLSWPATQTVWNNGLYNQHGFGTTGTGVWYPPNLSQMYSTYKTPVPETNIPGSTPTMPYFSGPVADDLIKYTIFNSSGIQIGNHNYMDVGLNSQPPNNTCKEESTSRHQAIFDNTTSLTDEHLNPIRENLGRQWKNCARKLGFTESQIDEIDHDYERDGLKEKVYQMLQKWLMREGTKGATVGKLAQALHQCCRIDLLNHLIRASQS
The experiment in a line: co-IP; endogenous proteins of primary BMDMs stimulated 4 h with LPS (100 ng/mL) + TAK1 inhibitor 5Z-7-oxozeaenol (0.1 uM), without zVAD; NP-40 lysis buffer; RIPK1 or ASC immunoprecipitated, protein A/G plus agarose; immunoblot.

Test [3] concerns the target T1, RIPK1 (RIP kinase 1), endogenous in BMDMs (mouse (endogenous in BMDMs)). Kind of test: co-IP; endogenous proteins of primary BMDMs stimulated 4 h with LPS (100 ng/mL) + TAK1 inhibitor 5Z-7-oxozeaenol (0.1 uM) + zVAD; NP-40 lysis buffer; RIPK1 or ASC immunoprecipitated overnight at 4°C, protein A/G plus agarose; immunoblot.
Test [4] addresses FLAG-tagged NLRP3 (nucleotide-binding oligomerization domain-like receptor family pyrin domain-containing 3) (UniProt Q8R4B8). Kind of test: co-IP; HEK293T co-transfected (600 ng each, 30 h) with FLAG-NLRP3 and ZBP1, RIPK3 or RIPK1 individually; zVAD-fmk; NP-40 lysis buffer (1% NP-40, 150 mM NaCl, 50 mM HEPES); antibody overnight at 4°C, protein A/G-plus agarose; immunoblot. A general note: A western blot detects proteins with antibodies after separation by electrophoresis.

For the substance “FLAG-tagged NLRP3 (nucleotide-binding oligomerization domain-like receptor family pyrin domain-containing 3) (from UniProt Q8R4B8 1-1033)”, the binding result in test [1] is recorded as “binds”.

For “NLRP3, endogenous in BMDMs (from UniProt Q8R4B8 1-1033)”, the binding result in test [2] is “binds weakly”; in test [3] it was “binds”.

With “RIPK3-GFP (receptor-interacting serine/threonine-protein kinase 3) (from UniProt Q9QZL0 1-486)”, in test [4], the binding result is listed as “binds”.
